Seven compounds from the odorant receptor screen of Mainland et al. (2015) can be followed below.

Some test systems named below: OR13C3 G2C clone 1339; OR13C3 clone 1390; OR13C4 clone 1094; OR13C7 Indel clone 1100; OR13C8 clone 1095; OR13C9 F197L clone 1096; OR13D1 clone 1338; OR13D1 clone 1484; OR13G1 I132V clone 1036; OR13H1 clone 1497; OR13J1 H133R clone 1098; OR14A16 Indel clone 1030; OR14A2 clone 1042; OR14J1 clone 1318; OR14J1 clone 1391; OR14K1 clone 1043.
Common to all, as to test: odorant receptor activation (CRE luciferase / Renilla) (fold of no-odor wells); higher = more activation
Common to all, as to details: 100 µM

Test [1] relates to OR13C5 S18F/L69M/P79S/L86V/N128S/M258T clone 1477.
The subject of test [2] is OR13F1 F18S/M101V/V134I/I270T clone 1097.
Test [3] relates to OR14C36 G225R/D231Y clone 1028.
Test [4] has as its system OR14I1 V36A/D50N/S170N clone 1479.

Structures are written as SMILES. The list shows a part of the results. Single wells; the ratio to wells without odorant was worked out here, and repeats agree poorly.

Turning to `CC12CCC(CC1)C(C)(C)O2` [cineole], the odorant receptor activation was 0.977 in the test with OR13C3 G2C clone 1339; 0.208 with OR13C3 clone 1390; 0.871 in the test on OR13C4 clone 1094; 0.684 in test [1]; 1.04 in the test on OR13C7 Indel clone 1100; 0.981 in the test with OR13C8 clone 1095. Further, the odorant receptor activation was found to be 0.882 in the test on OR13C9 F197L clone 1096; 0.986 in the test on OR13D1 clone 1338; 0.871 with OR13D1 clone 1484; 0.853 in test [2]; 0.873 with OR13G1 I132V clone 1036; 0.834 in the test with OR13H1 clone 1497. The odorant receptor activation with OR13J1 H133R clone 1098 came to 0.664; in the test on OR14A16 Indel clone 1030, 0.802; with OR14A2 clone 1042, 0.857; in test [3], 0.822; in test [4] it was 0.996; with OR14J1 clone 1318, 0.901. Besides, the figures for the odorant receptor activation with OR14J1 clone 1391 and with OR14K1 clone 1043 were 0.116 and 0.704, respectively.
For `CCCCO` [1-butanol], the odorant receptor activation in the test on OR13C3 G2C clone 1339 is 1.15; in the test on OR13C3 clone 1390, 1.43; with OR13C4 clone 1094, 21.3; in test [1], 1.06; with OR13C7 Indel clone 1100, 12.8; in the test with OR13C8 clone 1095, 2.88. For the same compound, the odorant receptor activation with OR13C9 F197L clone 1096 amounted to 22; in the test with OR13D1 clone 1338, 0.992; in the test on OR13D1 clone 1484, 1.03; in [2] it was 2.05; with OR13G1 I132V clone 1036 it was 2.07; with OR13H1 clone 1497, 1.06. Further, the odorant receptor activation was 3.81 with OR13J1 H133R clone 1098; 2.96 with OR14A16 Indel clone 1030; 3.46 in the test with OR14A2 clone 1042; 2.96 in test [3]; 1.12 in test [4]; 0.995 in the test with OR14J1 clone 1318. The results for the odorant receptor activation with OR14J1 clone 1391 and in the test on OR14K1 clone 1043 were 1.84 and 3.09, respectively.
As to `COC(=O)c1ccccc1O` [methyl salicylate], the odorant receptor activation in the test with OR13C3 G2C clone 1339 worked out at 1.07; with OR13C3 clone 1390 it was 0.797; with OR13C4 clone 1094 it was 0.922; in [1], 0.98; in the test with OR13C7 Indel clone 1100 it was 0.932; with OR13C8 clone 1095, 1.21. For the same compound, the odorant receptor activation was determined as 1.06 in the test on OR13C9 F197L clone 1096; 1.14 with OR13D1 clone 1338; 0.854 in the test with OR13D1 clone 1484; 1.02 in test [2]; 1.17 in the test on OR13G1 I132V clone 1036; 0.958 in the test on OR13H1 clone 1497. Further, the odorant receptor activation in the test with OR13J1 H133R clone 1098 was 1.01; with OR14A16 Indel clone 1030, 1.25; with OR14A2 clone 1042, 1.23; in [3] it was 1.1; in test [4], 0.92; in the test with OR14J1 clone 1318, 0.793. Further, the results for the odorant receptor activation in the test with OR14J1 clone 1391 and in the test with OR14K1 clone 1043 were 0.84 and 0.98, respectively.
For the compound `CCCC(=O)O` [butyric acid], the odorant receptor activation in the test with OR13C3 G2C clone 1339 was 1.05; with OR13C3 clone 1390, 0.22; in the test with OR13C4 clone 1094, 1.06; in test [1] it was 0.794; in the test on OR13C7 Indel clone 1100, 1.27; with OR13C8 clone 1095 it was 1.09. Besides, the odorant receptor activation stood at 1.3 in the test on OR13C9 F197L clone 1096; 0.774 in the test on OR13D1 clone 1338; 1.05 in the test with OR13D1 clone 1484; 1.28 in test [2]; 1.22 with OR13G1 I132V clone 1036; 1.21 in the test with OR13H1 clone 1497. Also, the odorant receptor activation came out at 0.971 in the test on OR13J1 H133R clone 1098; 1.01 with OR14A16 Indel clone 1030; 1.2 in the test on OR14A2 clone 1042; 0.803 in test [3]; 0.942 in test [4]; 0.92 in the test on OR14J1 clone 1318. For the same compound, the odorant receptor activation with OR14J1 clone 1391 is 0.169; with OR14K1 clone 1043 it was 1.12.
In the case of `C=C(C)C1CC=C(C)C(=O)C1` (stereo not given) [r-carvone], the odorant receptor activation in the test on OR13C3 G2C clone 1339 was determined as 0.786; in the test with OR13C3 clone 1390, 0.984; in the test on OR13C4 clone 1094, 0.956; in [1], 0.991; with OR13C7 Indel clone 1100 it was 0.714; in the test with OR13C8 clone 1095, 0.848. For the same compound, the odorant receptor activation in the test on OR13C9 F197L clone 1096 was found to be 1; in the test with OR13D1 clone 1338 it was 0.864; with OR13D1 clone 1484, 0.837; in test [2], 1.11; in the test with OR13G1 I132V clone 1036, 1.5; with OR13H1 clone 1497, 0.851. Further, the odorant receptor activation in the test on OR13J1 H133R clone 1098 worked out at 1.05; with OR14A16 Indel clone 1030 it was 1.04; with OR14A2 clone 1042, 0.913; in test [3] it was 0.817; in test [4], 0.718; in the test with OR14J1 clone 1318, 0.783. In addition, the odorant receptor activation with OR14J1 clone 1391 came to 1.07; in the test with OR14K1 clone 1043, 0.897.
`COc1cc(C)ccc1O` [2-methoxy-4-methylphenol]: the odorant receptor activation in the test on OR13C3 G2C clone 1339 is 1.04; in the test with OR13C3 clone 1390 it was 1.2; in the test on OR13C4 clone 1094, 11.9; in [1], 0.85; in the test on OR13C7 Indel clone 1100, 7.2; with OR13C8 clone 1095 it was 1.64. In addition, the odorant receptor activation in the test with OR13C9 F197L clone 1096 was 10.9; in the test on OR13D1 clone 1338 it was 0.939; with OR13D1 clone 1484, 0.771; in [2], 1.2; in the test with OR13G1 I132V clone 1036, 1.81; in the test on OR13H1 clone 1497 it was 0.761. In addition, the odorant receptor activation with OR13J1 H133R clone 1098 was found to be 1.93; in the test with OR14A16 Indel clone 1030 it was 1.88; in the test on OR14A2 clone 1042, 1.75; in test [3], 1.75; in [4], 0.889; in the test with OR14J1 clone 1318, 1. Besides, the odorant receptor activation with OR14J1 clone 1391 is 1.85; in the test with OR14K1 clone 1043, 1.66.
With `CCCCCCCCC=O` [nonyl aldehyde], the odorant receptor activation in the test on OR13C3 G2C clone 1339 was found to be 1.06; with OR13C3 clone 1390, 0.745; with OR13C4 clone 1094 it was 0.708; in test [1], 1.13; with OR13C7 Indel clone 1100, 1.06; in the test with OR13C8 clone 1095, 1.19. Besides, the odorant receptor activation in the test on OR13C9 F197L clone 1096 is 1.2; in the test on OR13D1 clone 1338 it was 0.937; with OR13D1 clone 1484, 1.07; in test [2], 1.04; with OR13G1 I132V clone 1036, 0.791; in the test with OR13H1 clone 1497, 1.12. The odorant receptor activation was determined as 1.25 in the test on OR13J1 H133R clone 1098; 1.13 in the test with OR14A16 Indel clone 1030; 0.979 in the test with OR14A2 clone 1042; 1.03 in [3]; 1.2 in [4]; 0.924 in the test with OR14J1 clone 1318. For the same compound, the odorant receptor activation is 0.853 in the test on OR14J1 clone 1391 and 0.873 in the test with OR14K1 clone 1043.
